PubChem BioAssay AID652054 (National Center for Advancing Translational Sciences (NCATS), 2013)
Out of some 360,000 compounds screened, about 9,100 (2.5%) were called active. Inconclusive results, whose numbers are uncertain, are shown with a selection of clear calls. Cut-off read from the data, not from the text of the source: active = max response below about -50%; inconclusive = no clear call, values can overlap the other calls; inactive = above that.

The chains behind the UniProt entries cited, without tags or fusion partners.
UniProt P35462, whole entry, looked up: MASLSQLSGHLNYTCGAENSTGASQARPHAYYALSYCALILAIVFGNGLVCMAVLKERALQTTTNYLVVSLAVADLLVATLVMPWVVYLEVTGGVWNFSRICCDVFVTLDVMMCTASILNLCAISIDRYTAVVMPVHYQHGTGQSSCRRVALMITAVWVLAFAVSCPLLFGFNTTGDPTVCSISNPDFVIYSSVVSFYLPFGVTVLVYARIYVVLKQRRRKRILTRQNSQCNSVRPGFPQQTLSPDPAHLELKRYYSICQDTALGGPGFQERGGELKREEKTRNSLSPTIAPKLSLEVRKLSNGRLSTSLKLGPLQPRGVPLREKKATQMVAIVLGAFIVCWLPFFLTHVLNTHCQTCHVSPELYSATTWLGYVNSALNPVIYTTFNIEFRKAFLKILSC

Molecular target: D(3) dopamine receptor (Homo sapiens) (UniProt P35462)
Test: qHTS of D3 Dopamine Receptor Antagonist: qHTS
Conditions: D3R cells, DiscoveRx beta-arrestin luminescence, antagonist mode; stronger effect = lower value
Summary of the method: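 Cells plated overnight at 1500 cells/well, then exposed to library compounds with dopamine controls for 90 minutes at 37 degrees C. DiscoveRx reagent added for 30–60 minutes at room temperature; luminescence read, quantitative HTS format.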
% is set by controls: 0 for no effect and ±100 for the full control effect.

Max response, negative = inhibition, inconclusive:
Cc1c([N+](=O)[O-])cnc(Sc2ccccc2)c1[N+](=O)[O-] -39.4%, Clc1ccc(NCc2nncn2-c2ccccc2)cc1 -38.2%, CC(C)OC(=O)c1ccc(NCc2cc(O)ccc2O)cc1 -39.2%, O=C(NCc1cn2ccccc2n1)c1ccc(Br)o1 -31.7%, COc1ccccc1NC(=O)N(Cc1ccccc1)C1=NCC(C)S1 (stereo not drawn) -46.5%, CCSc1n[nH]c2nc3c(c(=O)n12)C1(CCCC1)Cc1ccccc1-3 -32.4%, S=c1[nH]nc(-c2cc(-c3ccco3)[nH]n2)n1-c1ccccc1 -48.4%, COc1ccc(NC(=O)c2ccc(NCC3CCCO3)c([N+](=O)[O-])c2)cc1 (stereo not drawn) -35.8%, O=C(COc1ccc(Br)cc1)N1CCN(c2ccccc2)CC1 -44.9%, CN(C)CCSc1nnc2sc3ccccc3n12 -32.1%, CO/N=C/c1ccc(Sc2ccccc2)c([N+](=O)[O-])c1 -49.4%, CN(C)CCN(C(=O)C1CCCCC1)c1nc2cc3c(cc2s1)OCCO3 -34.9%, O=C(C1CCCN(Cc2cccc(Cl)c2)C1)N1CCCCC1 (stereo not drawn) -39.9%, Cn1nnc(NC(=S)NC(=O)c2cccc3c(Cl)cccc23)n1 -47.8%, COc1ccccc1-c1cccc([C@@H]2C[C@H]3[C@H](CON3C)CN2C)c1 -47.5%, CN(CCNC(=O)CN1CCN(Cc2ccccc2Cl)C1=O)Cc1ccccc1 -32.7%, CCCCn1c(NC(=O)c2ccccc2Cl)c(C#N)c2nc3ccccc3nc21 -41.7%, CCOC(=O)c1cn(Cc2ccccc2)c(C(=O)OC(C)(C)C)c1O -41.2%, O=[N+]([O-])c1ccccc1C(=Nc1ccccc1)c1c(O)cc(O)cc1O -44.3%, CCOc1cc(/C=C2\NC(=S)N(c3c(C)n(C)n(-c4ccccc4)c3=O)C2=O)ccc1O -36.5%, Cc1cc(C)n(CC(O)COc2ccc3ccccc3c2)n1 (stereo not drawn) -33.6%, S=c1[nH]nc(-c2ccco2)n1-c1ccc(Br)cc1 -34.4%, CCN1C(=O)[C@H]2[C@@H](c3ccc(C)cc3)N3C(=O)N(c4ccc(OC)cc4)C(=O)[C@@]3(Cc3ccccc3)[C@H]2C1=O -32.9%, COc1ccc(C(C2C(=O)CC(C)(C)CC2=O)C2C(=O)CC(C)(C)CC2=O)cc1COCC(F)(F)F -36.4%, COc1cc(OC)c(NC(=O)c2c(-c3ccccc3)noc2C)cc1Cl -34.5%, CN(C)CCCNC(=O)CCC1CCCCC1 -32.7%, CC1CCN(CC(O)COc2ccc(F)cc2)CC1 (stereo not drawn) -47.4%, NC(=O)Cc1ccc(C(=O)c2ccccc2)s1 -32.5%, CS(=O)(=O)c1ccc(Cl)c(NC(=O)COC(=O)c2ncc(Cl)c(Cl)c2Cl)c1 -32.8%

Max response, negative = inhibition, active:
CCCOc1ccc(C(=O)NNC(=S)NC(=O)c2cc(-c3ccccc3)nc3ccccc23)cc1 -55.4%, S=c1[nH]nc2c3c4c(sc3ncn12)CCCC4 -92.7%, Cc1cccc(N2CCN(CC3CCCCC3)CC2)c1C -97.5%, COc1ccc(-c2n(CC(=O)OC3CC(C)CCC3C(C)C)c3ccccc3[n+]2C)cc1 (stereo not drawn) -85.6%, CC1CCN(CCOc2cccc(Br)c2)CC1 -75.4%, CN(CCOc1ccccc1)CCOc1ccccc1 -87.4%, OCCN1CCN(c2nc(NCc3ccco3)c3ccccc3n2)CC1 -81.7%, Cn1cc(CNCc2ccccc2OCC(O)CN2CCc3ccccc3C2)cn1 (stereo not drawn) -70.6%, Cc1nc2ncnn2c(C)c1CCC(=O)NCCCN1CCN(c2cccc(Cl)c2)CC1 -52.4%, COc1cc(CN2CCc3ccc(NC(=O)CCc4ccccc4OC)cc3C2)ccc1O -61.8%, CCN1CCN(C(=S)c2ccc(SC)cc2)CC1 -85.4%

Max response, negative = inhibition, inactive:
O=C(/C(=C(\O)c1ccccc1)c1nc2ccccc2[nH]1)c1ccccc1 0.912%, O=C(COC(=O)c1cccc(O)c1)Nc1ccc(S(=O)(=O)N2CCOCC2)cc1 -14.4%, Cc1onc(-c2ccccc2)c1CNC(=O)C1COc2ccccc2O1 (stereo not drawn) -16.1%, Cc1ccc(NC(=O)NCc2ccc3c(c2)OCO3)cc1C 1.05%, Cc1ccnc(NS(=O)(=O)c2ccc(NC(=O)c3ccc([N+](=O)[O-])s3)cc2)n1 -19.1%, Cc1ccc(OCCSCc2nnc(NC(=O)Nc3cccc(Cl)c3)s2)cc1 4.05%, O=[N+]([O-])c1cc(S(=O)(=O)NCCN2CCOCC2)ccc1Sc1nnnn1-c1ccccc1 2.15%, Cc1ccc(CN(Cc2ccccc2)C(=S)NCC(=O)NCc2cccnc2)o1 -1.93%, CN1CC(=O)N/C1=N\C(=O)Nc1ccc(O)cc1 5.35%, Cc1cccc(-n2c(C)nc3cc(C(=O)NCCN4CCOCC4)ccc32)c1 13.1%, COC(=O)C(=Cc1ccc(OCc2ccc([N+](=O)[O-])cc2)c(OC)c1)C(=O)OC -3.61%, COc1ccc(Cl)cc1Nc1nc(N)c2ccccc2n1 6.7%, COc1ccc(NC(=O)NNC(=O)COc2ccc3ccccc3c2)cc1OC -11%, Cn1c2ccccc2c(=O)c2c(=O)n(-c3ccc(F)cc3)c(-c3cccs3)nc21 -11.6%, CCCNC(=O)C12CCC(C)(c3nc4cc(C)c(C)cc4nc31)C2(C)C (stereo not drawn) -5.41%, CCC(C)(C)NC(=O)C(c1ccc(F)cc1)N(Cc1ccco1)C(=O)c1snc(C(N)=O)c1N (stereo not drawn) 14.2%, CC(C)Cc1nc2oc3c(NCc4cccnc4)ncnc3c2c2c1CCC2 22.9%, Cc1cccc(NC(=O)CCN2CCCC(C)C2)c1 (stereo not drawn) -0.731%
